Data published in publication PMC7481406, “Bifunctional supramolecular nanofiber inhibits atherosclerosis by enhancing plaque stability and anti-inflammation in apoE^-/- mice” (Theranostics, 2020).

By UniProt entry, the sequences of proteins in these tests, tags left out. Residues count along the entry.
UniProt P08069, 31-1367: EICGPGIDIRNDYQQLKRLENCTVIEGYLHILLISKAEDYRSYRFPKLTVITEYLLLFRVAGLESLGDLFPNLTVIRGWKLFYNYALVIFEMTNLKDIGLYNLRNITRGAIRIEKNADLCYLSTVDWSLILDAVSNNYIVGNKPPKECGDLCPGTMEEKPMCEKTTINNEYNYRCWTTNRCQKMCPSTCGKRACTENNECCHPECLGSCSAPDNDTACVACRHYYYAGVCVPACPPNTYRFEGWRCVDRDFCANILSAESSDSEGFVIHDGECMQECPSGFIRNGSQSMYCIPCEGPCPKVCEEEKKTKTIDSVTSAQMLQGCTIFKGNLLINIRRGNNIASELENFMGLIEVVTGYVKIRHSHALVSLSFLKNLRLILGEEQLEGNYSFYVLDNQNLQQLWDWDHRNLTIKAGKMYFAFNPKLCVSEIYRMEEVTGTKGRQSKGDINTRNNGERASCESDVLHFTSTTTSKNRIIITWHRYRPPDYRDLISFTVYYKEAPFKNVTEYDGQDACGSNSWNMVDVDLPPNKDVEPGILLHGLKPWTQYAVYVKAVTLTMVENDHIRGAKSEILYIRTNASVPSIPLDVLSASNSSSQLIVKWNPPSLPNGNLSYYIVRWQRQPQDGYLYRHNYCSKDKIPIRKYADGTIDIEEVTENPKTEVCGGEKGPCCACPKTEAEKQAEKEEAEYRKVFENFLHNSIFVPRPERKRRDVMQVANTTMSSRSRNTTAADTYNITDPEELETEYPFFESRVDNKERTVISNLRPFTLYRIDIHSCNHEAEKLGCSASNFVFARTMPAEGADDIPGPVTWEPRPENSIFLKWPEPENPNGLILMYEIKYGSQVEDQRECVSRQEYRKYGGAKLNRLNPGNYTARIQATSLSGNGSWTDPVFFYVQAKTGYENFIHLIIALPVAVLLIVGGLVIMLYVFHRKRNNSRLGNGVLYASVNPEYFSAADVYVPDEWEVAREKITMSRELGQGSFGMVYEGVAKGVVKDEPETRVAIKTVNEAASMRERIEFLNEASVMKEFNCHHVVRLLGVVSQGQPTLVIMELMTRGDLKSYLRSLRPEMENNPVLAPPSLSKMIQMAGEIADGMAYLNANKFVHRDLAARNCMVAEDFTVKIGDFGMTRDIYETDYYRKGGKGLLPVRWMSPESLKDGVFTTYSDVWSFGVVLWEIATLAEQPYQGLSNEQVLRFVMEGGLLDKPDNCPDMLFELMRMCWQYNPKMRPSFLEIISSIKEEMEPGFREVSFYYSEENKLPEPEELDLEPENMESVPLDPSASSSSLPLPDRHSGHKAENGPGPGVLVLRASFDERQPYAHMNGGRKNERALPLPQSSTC

Target: recombinant human Insulin-like Growth Factor-I Receptor (rhIGF-1R) (Homo sapiens, UniProt P08069)
Test: Microscale thermophoresis binding to rhIGF-1R
Source text: The transparency of the prepared hydrogel in the visible light range of 380 nm-780 nm is detected by UV-Vis spectroscopy (Lambda 35 UV/Vis Spectrometer, Perkin-Elmer). […] Therefore, we conducted microscale thermophoresis experiments to determine their binding affinity to recombinant human Insulin-like Growth Factor-I Receptor (rhIGF-1R).
rhIGF-1R was labeled with the fluorescent dye NT-647 using a Monolith NT™ Protein Labelling Kit (cysteine-reactive) (NanoTemper Technologies, Germany). PBS buffer containing 0.05% Tween 20 (pH 7.4) was used as the assay buffer. For the interaction experiments of fluorescent proteins with Compound 1, 2, 3or 4, the concentration of labeled proteins were kept constant, while the concentration of Compound 1, 2, 3or 4 varied from 0.054 nM to 2 μM. Then, the solution of fluorescent proteins was mixed with solutions containing different concentrations of Compound 1, 2, 3or 4 at 1:1 volume ratio. After a short incubation time, the samples were loaded into MST NT.115 standard glass capillaries and the analysis was performed using the Monolith NT.115 system (NanoTemper Technologies, Germany). The KD value was calculated using the NanoTemper software package.

SMILES	Kd
COc1ccc2cc([C@H](C)C(=O)N[C@H](Cc3ccccc3)C(=O)N[C@H](Cc3ccccc3)C(=O)NCC(=O)N[C@@H](CO)C(=O)N[C@@H](CO)C(=O)N[C@@H](CO)C(=O)N[C@@H](CCCNC(=N)N)C(=O)O)ccc2c1 [Compound H1, Npx-^DF^DFGSSSR]	0.145 µM
COc1ccc2cc([C@H](C)C(=O)N[C@@H](Cc3ccccc3)C(=O)N[C@@H](Cc3ccccc3)C(=O)NCC(=O)N[C@@H](CO)C(=O)N[C@@H](CO)C(=O)N[C@@H](CO)C(=O)N[C@@H](CCCNC(=N)N)C(=O)O)ccc2c1 [Compound H2, Npx-FFGSSSR]	0.173 µM
